The other results are listed elsewhere or left out.
Target: OsWRKY34 (Oryza sativa, UniProt Q0JBA9 1-250)
Experiment: protein-binding microarray (RPBM); PBS, 2% BSA, 51.3 ng/ul salmon testes DNA, 50 uM zinc acetate, 200 nM TF, 25 C, 1 h; high values mean tight binding
Details: protein: recombinant; tags: N-terminal polyhistidine and DsRed monomer fusion (pET32a); label: CyDye5-dUTP incorporated in the synthesized complementary strand; 3' TTTTT single-stranded linker to array surface; dsDNA, one strand shown
Procedure, shortened: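 Ni–NTA purification followed expression in E. coli BL21-CodonPlus of transcription factors fused N-terminally to a polyhistidine tag and DsRed. At 200 nM in PBS with 2% BSA, salmon testes DNA and 50 µM zinc acetate, the protein was incubated for 1 h at 25 °C with a custom Agilent array that had been primer-extended with Cy5-dUTP and blocked with 2% BSA. After washing, the array was read on an Axon 4000B scanner. The binding signal is per-feature fluorescence intensity in arbitrary units.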

Amino acid sequences for entries named in this document (tags omitted).
UniProt Q0JBA9, entry or part of it: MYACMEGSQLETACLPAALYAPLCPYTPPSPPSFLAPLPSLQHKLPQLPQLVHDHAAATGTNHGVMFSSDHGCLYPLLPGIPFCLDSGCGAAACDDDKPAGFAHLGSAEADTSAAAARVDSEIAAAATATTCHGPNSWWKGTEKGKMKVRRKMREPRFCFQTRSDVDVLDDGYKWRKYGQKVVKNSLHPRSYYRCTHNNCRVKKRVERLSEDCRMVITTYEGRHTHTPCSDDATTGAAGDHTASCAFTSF

Sequence	binding signal
ACTTTAGTTTTTTTCCGTTGCAGCACACGGTTTTTTTTAACGGAGTCACCTAGTGCAG	9170 fluorescence intensity (a.u.)
TGTGGTTGTGCTGATTTGCAGATGAGGGCCTTGCACTGTGCGGAGTCACCTAGTGCAG	8660 fluorescence intensity (a.u.)
TCTGTTCTCCGATTGCTTCTGCTCTCATCTTCTTCCTTGCCGGAGTCACCTAGTGCAG	10700 fluorescence intensity (a.u.)
TGAGAAGTGGTCTTGGTGGTTAGTTGTTTCCGTTGTATTCCGGAGTCACCTAGTGCAG	10300 fluorescence intensity (a.u.)
GTAGCTTAAGTTTTTCTTCCCGATTCTATTCCTAGGCCGCCGGAGTCACCTAGTGCAG	9180 fluorescence intensity (a.u.)
GATTGCTCCAACTGCCTCCAGGGTTCTAAACATATATGTTCGGAGTCACCTAGTGCAG	10500 fluorescence intensity (a.u.)
TCTAGATTTCTCTCTCTCTCATGCACAATTGCACAGTACACGGAGTCACCTAGTGCAG	8370 fluorescence intensity (a.u.)
TCTTGTGCAACCTTGGTCGACAGGCTTGTTGTTATAGCTCCGGAGTCACCTAGTGCAG	8430 fluorescence intensity (a.u.)
CACCACCACCTCCACCTCCGCCGTGCGGACGCCGCCGGCTCGGAGTCACCTAGTGCAG	8850 fluorescence intensity (a.u.)
TCCGGTTCTCCATTGTCCATTCACCCGGCCCATCTGCAACCGGAGTCACCTAGTGCAG	12000 fluorescence intensity (a.u.)
CTACTCGCTGCTCGCCACCGCGCTGGCCCTCCCCGACGACCGGAGTCACCTAGTGCAG	9500 fluorescence intensity (a.u.)
CCGTCGGCGACGTGGTGTCCTGCTGCTTGACATGTTTTTTCGGAGTCACCTAGTGCAG	9540 fluorescence intensity (a.u.)
CCCCACGCCGCAATCTCGCGAATCCCACCGCTTCCGTTTCCGGAGTCACCTAGTGCAG	8700 fluorescence intensity (a.u.)
CCTCCACTTGGCTCATTTAGCATCTGCCGCAACATTAAGACGGAGTCACCTAGTGCAG	9210 fluorescence intensity (a.u.)
TGCTTAGGTTGGTTGCACTGGGGCGTGTCCTGTGGCCTTTCGGAGTCACCTAGTGCAG	8540 fluorescence intensity (a.u.)
CTTATATTGTACTCCAAGTCTCTATCTCCTATATATGTACCGGAGTCACCTAGTGCAG	9220 fluorescence intensity (a.u.)
GCCCTGATTATATAATCTTCCTCGTTAATCACAGTTTCTACGGAGTCACCTAGTGCAG	11000 fluorescence intensity (a.u.)
AGGATATACTACACCATAAGGTACATATACCTCTCTATACCGGAGTCACCTAGTGCAG	8680 fluorescence intensity (a.u.)
CTATTTTTTCTTTCTTGTTGTTGAAATGTCATCTTCTCAGCGGAGTCACCTAGTGCAG	8800 fluorescence intensity (a.u.)
GGCGCCGTCGTCTTCTTTCCCACGCCGCCGCCGCCGTCAACGGAGTCACCTAGTGCAG	8600 fluorescence intensity (a.u.)
CAATTTAATTTACTCTCTCCTGCATATGCCAAATGCTTCTCGGAGTCACCTAGTGCAG	8470 fluorescence intensity (a.u.)

Sequence	binding signal
CCTACATGTCATTGAGCTTTTTATTTTTGATGTTGTCTTGCGGAGTCACCTAGTGCAG	9020 fluorescence intensity (a.u.)
GGAGGAGGAGAAGCTTCTAGAAGGGGAGCGGGGCGGCATGCGGAGTCACCTAGTGCAG	8690 fluorescence intensity (a.u.)
GCGCGGATAAGGGGTGTGTGTTTGGTTGGCGTCTTGGCGACGGAGTCACCTAGTGCAG	12000 fluorescence intensity (a.u.)
TATATCTATGCGACCATGCCCCATTTGCTCGCTGTTTAACCGGAGTCACCTAGTGCAG	8020 fluorescence intensity (a.u.)
ACATCCTTCTGGGTTGATTTTTTTCTATAGAGGGGTAGGTCGGAGTCACCTAGTGCAG	8590 fluorescence intensity (a.u.)
TCTCGAAATTTCCCAACCGCTCGCTCGCCCGCCTCGTCTTCGGAGTCACCTAGTGCAG	9140 fluorescence intensity (a.u.)
GAACCAACCAACCACGCGCGCACGCCCCGCGTCTCGTCGCCGGAGTCACCTAGTGCAG	8550 fluorescence intensity (a.u.)
TTTTGCCACGGTTTATTGTTGAAACAATTTGTCCAAATTTCGGAGTCACCTAGTGCAG	8610 fluorescence intensity (a.u.)
ACGCAATCTGTGTAATTAGTTATTTTTTCGTTTATATTTACGGAGTCACCTAGTGCAG	8710 fluorescence intensity (a.u.)
CTTCCGGCCGACCTTACACCAACCCGACGACCAAGTTGCACGGAGTCACCTAGTGCAG	8190 fluorescence intensity (a.u.)
TCGTTTTCCGCATGCACGTTTTTTAAACTGCTAAATGATGCGGAGTCACCTAGTGCAG	9790 fluorescence intensity (a.u.)
CTGCAACTCTACTGTATGGAAAATCATGCCCGATCGATGCCGGAGTCACCTAGTGCAG	8450 fluorescence intensity (a.u.)
CTCGATCCAGTCCAGTGCTTTGGCCCAACACATCAACGTTCGGAGTCACCTAGTGCAG	8710 fluorescence intensity (a.u.)
AGCCGACGAGACGGGTGGTGGGGCGGTGGCGGCCGAGGATCGGAGTCACCTAGTGCAG	11600 fluorescence intensity (a.u.)
CCAACTTTTCCATCACATCGTTCCAATTTCAACCAAACTTCGGAGTCACCTAGTGCAG	8110 fluorescence intensity (a.u.)
CACTGAATTTTGGTTTTGATTTCTTTTGTACCTGCTGACACGGAGTCACCTAGTGCAG	8920 fluorescence intensity (a.u.)
CAATAGCTCATCACCATTGCATAATTAATCCAAATCAATCCGGAGTCACCTAGTGCAG	9230 fluorescence intensity (a.u.)
TGTTCTTCGAGGAGCACGACGACTACAAGTTCAACGGCCTCGGAGTCACCTAGTGCAG	9140 fluorescence intensity (a.u.)
CTTTCTAGTATTGCTCGTATTCATATAGATGTTAATAATCCGGAGTCACCTAGTGCAG	9370 fluorescence intensity (a.u.)
CCGCCGCTCCACCGTCTCAGCCATCGCCACCGCCCGCAGCCGGAGTCACCTAGTGCAG	8400 fluorescence intensity (a.u.)
TGCACCGGTTTTGATAGCTGAGGGACCCGTTGTATCTAGTCGGAGTCACCTAGTGCAG	8690 fluorescence intensity (a.u.)

A second format for part of the listing above:
TCCGGTTCTCCATTGTCCATTCACCCGGCCCATCTGCAACCGGAGTCACCTAGTGCAG
  binding signal = 12000 fluorescence intensity (a.u.)
CCGTCGGCGACGTGGTGTCCTGCTGCTTGACATGTTTTTTCGGAGTCACCTAGTGCAG
  binding signal = 9540 fluorescence intensity (a.u.)
ACGCAATCTGTGTAATTAGTTATTTTTTCGTTTATATTTACGGAGTCACCTAGTGCAG
  binding signal = 8710 fluorescence intensity (a.u.)
